# Reference: the supplement of paper PMC6411743
# ± gives the standard deviation of the averaged measurements. The entries are a selection whose mix differs from that of the whole data set.
# Tests used:
# Test in all cases: NP40-soluble protein abundance relative to vehicle (solubility fold change) (ratio); higher = more soluble protein in presence of AMP-PNP
# UniProt Q8NCE2-2 = target: T1, UniProt Q8NCE2-2
# T1 sequence (whole entry): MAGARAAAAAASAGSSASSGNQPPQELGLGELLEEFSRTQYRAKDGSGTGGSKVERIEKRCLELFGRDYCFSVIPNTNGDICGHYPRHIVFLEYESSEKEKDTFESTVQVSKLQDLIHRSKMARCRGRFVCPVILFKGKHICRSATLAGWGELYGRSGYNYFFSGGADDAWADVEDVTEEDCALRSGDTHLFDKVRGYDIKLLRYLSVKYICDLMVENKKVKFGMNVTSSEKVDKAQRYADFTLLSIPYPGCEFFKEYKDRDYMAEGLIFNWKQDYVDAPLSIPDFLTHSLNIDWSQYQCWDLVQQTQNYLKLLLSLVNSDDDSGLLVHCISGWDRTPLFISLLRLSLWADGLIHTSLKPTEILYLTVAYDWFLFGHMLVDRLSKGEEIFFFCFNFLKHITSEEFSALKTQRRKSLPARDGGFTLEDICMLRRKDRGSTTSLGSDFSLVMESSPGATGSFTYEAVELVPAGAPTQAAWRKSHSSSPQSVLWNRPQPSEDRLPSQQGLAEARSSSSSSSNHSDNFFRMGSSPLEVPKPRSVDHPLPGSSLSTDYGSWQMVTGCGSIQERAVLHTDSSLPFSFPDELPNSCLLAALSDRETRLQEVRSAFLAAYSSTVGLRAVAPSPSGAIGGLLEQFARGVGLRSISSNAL
# Summary of the method: (§1)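 Jurkat crude lysate prepared with a Dounce homogeniser was treated at eight concentrations spanning 0.1 to 10 mM, 10 min at room temperature then 3 min at 37 °C. Solubilisation with 0.8% NP40 and benzonase and ultracentrifugation preceded TMT labelling of the supernatant for LC-MS/MS. Fold change against the detergent-processed vehicle was determined per replicate from vsn-normalised intensities, across three independent experiments.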
# [1] = target: T2, UniProt Q8NE86 and related entries
# T2 sequence (whole entry): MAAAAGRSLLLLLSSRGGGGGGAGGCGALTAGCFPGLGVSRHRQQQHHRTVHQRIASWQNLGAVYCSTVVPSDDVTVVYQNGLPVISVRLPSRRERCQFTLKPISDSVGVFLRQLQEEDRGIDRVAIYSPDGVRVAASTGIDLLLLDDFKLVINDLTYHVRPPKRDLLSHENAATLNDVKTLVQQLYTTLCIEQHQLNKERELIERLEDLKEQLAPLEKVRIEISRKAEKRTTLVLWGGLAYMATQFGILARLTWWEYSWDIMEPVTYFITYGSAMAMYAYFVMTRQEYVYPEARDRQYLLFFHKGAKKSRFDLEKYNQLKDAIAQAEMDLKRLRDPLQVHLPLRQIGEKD
# Summary of the method: as §1
# [2] = target: T3, UniProt Q8TB36 and related entries
# T3 sequence (whole entry): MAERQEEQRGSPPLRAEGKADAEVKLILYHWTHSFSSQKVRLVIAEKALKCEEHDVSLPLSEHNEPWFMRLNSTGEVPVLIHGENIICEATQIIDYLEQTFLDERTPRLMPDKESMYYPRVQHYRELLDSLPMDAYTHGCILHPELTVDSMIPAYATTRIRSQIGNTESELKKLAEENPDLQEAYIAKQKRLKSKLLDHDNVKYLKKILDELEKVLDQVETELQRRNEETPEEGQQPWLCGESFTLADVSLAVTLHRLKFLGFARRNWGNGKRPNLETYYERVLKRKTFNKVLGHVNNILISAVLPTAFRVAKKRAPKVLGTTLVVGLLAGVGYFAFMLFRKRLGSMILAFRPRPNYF
# Summary of the method: as §1
# UniProt Q8TB72-3 = target: T4, UniProt Q8TB72-3
# T4 sequence (whole entry): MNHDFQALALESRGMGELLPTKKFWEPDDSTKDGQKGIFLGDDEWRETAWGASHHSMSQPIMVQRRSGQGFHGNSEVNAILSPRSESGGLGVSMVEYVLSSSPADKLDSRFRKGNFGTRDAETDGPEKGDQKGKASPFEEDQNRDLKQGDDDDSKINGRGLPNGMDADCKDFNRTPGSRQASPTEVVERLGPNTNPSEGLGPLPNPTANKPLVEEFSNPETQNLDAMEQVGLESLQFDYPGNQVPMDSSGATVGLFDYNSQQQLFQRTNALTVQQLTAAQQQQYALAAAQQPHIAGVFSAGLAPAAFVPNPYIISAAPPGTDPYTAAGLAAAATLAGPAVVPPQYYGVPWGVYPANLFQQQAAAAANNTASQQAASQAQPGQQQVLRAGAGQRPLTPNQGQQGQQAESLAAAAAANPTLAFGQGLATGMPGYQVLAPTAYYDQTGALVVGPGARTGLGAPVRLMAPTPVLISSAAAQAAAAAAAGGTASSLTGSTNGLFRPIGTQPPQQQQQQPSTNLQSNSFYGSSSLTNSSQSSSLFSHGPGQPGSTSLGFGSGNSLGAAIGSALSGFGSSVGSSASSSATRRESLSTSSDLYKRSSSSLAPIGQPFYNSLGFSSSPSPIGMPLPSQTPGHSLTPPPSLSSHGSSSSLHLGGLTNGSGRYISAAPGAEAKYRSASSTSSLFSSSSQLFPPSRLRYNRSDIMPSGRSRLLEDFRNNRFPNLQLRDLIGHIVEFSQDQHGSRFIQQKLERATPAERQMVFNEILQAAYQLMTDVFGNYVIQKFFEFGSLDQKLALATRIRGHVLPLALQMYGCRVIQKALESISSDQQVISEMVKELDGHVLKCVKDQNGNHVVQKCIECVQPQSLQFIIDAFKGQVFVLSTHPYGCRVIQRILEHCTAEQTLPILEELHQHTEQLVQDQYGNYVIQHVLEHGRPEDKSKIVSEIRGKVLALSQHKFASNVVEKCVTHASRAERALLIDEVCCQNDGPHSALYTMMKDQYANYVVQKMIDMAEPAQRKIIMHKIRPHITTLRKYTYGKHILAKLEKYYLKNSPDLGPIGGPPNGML
# Summary of the method: as §1
structure (smiles),measurement,setting,value
Nc1ncnc2c1ncn2[C@@H]1O[C@H](COP(=O)(O)OP(=O)(O)NP(=O)(O)O)[C@@H](O)[C@H]1O [adenylyl imidodiphosphate],NP40-soluble protein abundance,UniProt Q8NCE2-2; concentration: 6mM,1.01 ± 0.044
same,NP40-soluble protein abundance,UniProt Q8NCE2-2; concentration: 8mM,1.02 ± 0.061
same,NP40-soluble protein abundance,UniProt Q8NCE2-2; concentration: 10mM,1.03 ± 0.059
same,NP40-soluble protein abundance,[1]; concentration: 1mM,0.984 ± 0.034
same,NP40-soluble protein abundance,[1]; concentration: 2mM,0.959 ± 0.051
same,NP40-soluble protein abundance,[1]; concentration: 4mM,1.02 ± 0.044
same,NP40-soluble protein abundance,[1]; concentration: 6mM,0.972 ± 0.011
same,NP40-soluble protein abundance,[1]; concentration: 8mM,1 ± 0.015
same,NP40-soluble protein abundance,[1]; concentration: 10mM,0.922 ± 0.027
same,NP40-soluble protein abundance,[2]; concentration: 1mM,0.934 ± 0.06
same,NP40-soluble protein abundance,[2]; concentration: 2mM,0.96 ± 0.061
same,NP40-soluble protein abundance,[2]; concentration: 4mM,0.945 ± 0.042
same,NP40-soluble protein abundance,[2]; concentration: 6mM,0.995 ± 0.055
same,NP40-soluble protein abundance,[2]; concentration: 8mM,1.01 ± 0.02
same,NP40-soluble protein abundance,[2]; concentration: 10mM,0.963 ± 0.048
same,NP40-soluble protein abundance,UniProt Q8TB72-3; concentration: 1mM,1.02 ± 0.045
same,NP40-soluble protein abundance,UniProt Q8TB72-3; concentration: 2mM,1.04 ± 0.022

# Taken from the listing for reference:
structure (smiles),measurement,setting,value
Nc1ncnc2c1ncn2[C@@H]1O[C@H](COP(=O)(O)OP(=O)(O)NP(=O)(O)O)[C@@H](O)[C@H]1O [adenylyl imidodiphosphate],NP40-soluble protein abundance,[1]; concentration: 6mM,0.972 ± 0.011
same,NP40-soluble protein abundance,[1]; concentration: 8mM,1 ± 0.015
